# Test results: PubChem BioAssay AID504467 (National Center for Advancing Translational Sciences (NCATS), 2011)
# In all, about 330,000 compounds went through this assay and about 7,700 (2.3%) were called active. This list was built around the results that the source calls inconclusive (neither active nor inactive); the mix of calls is not that of the screen. The call rests on the fitted dose curve; in most records, active means well fitted inhibition curve with a large enough effect; inconclusive means small, poorly fitted or top-dose-only effect, or effect the other way; inactive means flat fitted curve, though single readings scatter. Potencies beside an inconclusive call are fits to weak or partial responses and may not hold up.
# Assay: qHTS screen for small molecules that inhibit ELG1-dependent DNA repair in human embryonic kidney (HEK293T) cells expressing luciferase-tagged ELG1; further: nearly all actives have a fitted effect of over 55% in size
# Details: HEK293T ELG1-luciferase reporter, luminescence, 16 h, DNA damage induced by 5-fluorouridine; series mostly up to 46.1 µM
# Procedure, shortened: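 Luminescence from the luciferase reporter, measured 30 min after ONE-Glo reagent at room temperature, was the read-out. Beforehand, 2,000 cells per well were exposed for 16 hr at 37 °C to 5-fluorouridine together with compound or vehicle.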
# Potency means the concentration at half of the fitted maximal effect.
row,Structure (SMILES),Potency
1,c1ccc(CSCc2cn3ccccc3n2)cc1,"inconclusive: 16.4 µM [activator, partial curve]"
2,COc1cc(N=Nc2ccccc2C(=O)O)ccc1O,"inconclusive: 29.1 µM [activator, single point]"
3,Cc1ccc(S(=O)(=O)NNC(=O)Nc2ccc(Cl)c(Cl)c2)cc1,inactive
4,CCOC(=O)CN1C(=O)S/C(=C/C=C/c2ccc(N(C)C)cc2)C1=O,"inconclusive: 10.3 µM [activator, partial curve]"
5,FC(F)(F)c1cc(CCN2C(=S)NC[C@@H]2Cc2ccccc2)cc(C(F)(F)F)c1,inactive
6,O=C1/C(=C/c2ccc(O)c(O)c2)SC(=S)N1Nc1ccccc1,inactive
7,CCOC(=O)C1CN(S(=O)(=O)c2ccccc2)c2cc(S(=O)(=O)CC)ccc2O1 (configuration not stated),"inconclusive: 0.164 µM [activator, full curve]"
8,COc1ccccc1N1CCN(C(=S)Nc2ccc3nc(N4CCOCC4)cc(C)c3c2)CC1,active: 18.3 µM
9,CN(CC(=O)Nc1cccc(F)c1)C(=O)CCc1nc2sc3c(c2c(=O)[nH]1)CCCC3,"inconclusive: 29.1 µM [activator, single point]"
10,O=C(c1ccc(OC2CCN(Cc3ccc(C(F)(F)F)cc3)CC2)cc1)N1CCCCC1,"inconclusive: 14.6 µM [inhibitor, partial curve, poor fit]"
11,Cc1cc(/C=N/Nc2ccc([N+](=O)[O-])cn2)c(C)n1-c1ccccc1,"inconclusive: 1.64 µM [activator, full curve]"
12,COc1ccccc1N1CCN(C(=O)c2oc3cc(C)cc(C)c3c2C)CC1,"inconclusive: 18.4 µM [inhibitor, single point]"
13,CC(C)(C)n1nc(-c2ccc(F)cc2)c2c(N)ncnc21,inactive
14,CC1(C)CCc2cc(CN3CCN(c4ccccn4)CC3)ccc2O1,"inconclusive: 25.9 µM [inhibitor, partial curve]"
15,CSc1nc2sc3c(c2c(=O)n1C1CCCCC1)CCN(C)C3,inactive
16,COc1cc2sc3cc(NCCCN4CCOCC4)ccc3c(=O)c2cc1OC,"inconclusive: 8.2 µM [activator, partial curve]"
17,COc1cc(C(C)=O)ccc1Oc1cc(NN2CCCCC2)c([N+](=O)[O-])cc1[N+](=O)[O-],inactive
18,NC(N)=N/N=C/c1ccc(Cl)c(Cl)c1,inactive
19,O=c1c2[nH]c3cccc(Cl)c3c2ncn1CC1CCCO1 (configuration not stated),"inconclusive: 23.1 µM [activator, partial curve]"
20,Nc1c(C(=O)c2ccc(Br)cc2)oc2ccccc12,"inconclusive: 9.2 µM [activator, partial curve]"
21,COc1ccccc1S(=O)(=O)Cc1ccc(C(=O)N2CCCC2)o1,inactive
22,CCNC(=S)N/N=C(\C)c1ccc(Cl)s1,inactive
23,COc1ccc(NC(=O)CCNS(=O)(=O)c2ccc(Cl)c([N+](=O)[O-])c2)cc1S(N)(=O)=O,inactive
24,CCCCCC1C(=O)C[C@@H]2CCN3C(=O)CCC[C@H]1[C@H]23 (some centres not stated),inactive

row,Structure (SMILES),Potency
1,CCN(CC)C(=O)Oc1ccc2c(=O)c(-c3ccc(OC)cc3)c(C)oc2c1,"inconclusive: 29.1 µM [inhibitor, single point]"
2,O=C(NCCCCNC(=O)c1cccnc1)c1cccnc1,inactive
3,Cc1ccc(S(=O)(=O)Nc2cccc(-n3cnnn3)c2)cc1C,inactive
4,Cc1oc(-c2ccccc2)cc1C(=O)Nc1cccc(C(=O)O)c1,"inconclusive: 20.6 µM [activator, partial curve]"
5,Cc1ccc2nc3c(cc(C(N)=S)c(=N)n3CCCOC(C)C)c(=O)n2c1,"inconclusive: 25.9 µM [inhibitor, single point]"
6,CCCCN(CC)CCCNC(=O)c1cc2c(-c3ccc(OC)c(OC)c3)nn(C)c2s1,inactive
7,Fc1ccccc1NC(=S)NCCc1cccc(Cl)c1,"inconclusive: 23.1 µM [activator, partial curve]"
8,CCCCCC1CCC(c2ccc(/C(N)=N/O)cc2)CC1 (configuration not stated),"inconclusive: 29.1 µM [inhibitor, single point]"
9,S=c1nc(SCc2ccccc2)[nH]c2ccccc12,inactive
10,CCCN(CCC)S(=O)(=O)c1ccc(C(=O)N2CCN(C)CC2)cc1,"inconclusive: 0.251 µM [inhibitor, full curve, poor fit]"
11,COCCN1Cc2cccc(C(=O)Nc3cc(OC)ccc3OC)c2C1=O,"inconclusive: 13 µM [inhibitor, partial curve]"
12,O=C(Nc1nc(-c2ccccc2)c(-c2ccccc2)s1)c1ccc(S(=O)(=O)N2CCCCC2)cc1,inactive
13,CCc1c(C)sc(NC(=O)C2CCCO2)c1C#N (configuration not stated),"inconclusive: 20.6 µM [activator, single point]"
14,CCn1c(SCC(=O)c2c(N)n(C)c(=O)n(C)c2=O)nnc1-c1ccccc1,inactive
15,Cc1cc(C(=O)Nc2ccccc2)c(C)o1,"inconclusive: 23.1 µM [activator, single point]"
16,O=c1cc(Cn2ccnc2)c2cc3c(cc2o1)CCC3,"inconclusive: 10.3 µM [activator, partial curve, poor fit]"
17,COc1ccc2cc3cc(C(=O)NCC4COc5ccccc5O4)oc3nc2c1 (configuration not stated),"inconclusive: 25.9 µM [inhibitor, single point]"
18,NN1C(=O)/C(=C\c2ccco2)SC1=S,inactive
19,COc1ccc(OC)c(Nc2ncnc3ccc(Br)cc23)c1,"inconclusive: 10.3 µM [inhibitor, partial curve, poor fit]"
20,CC(C)(C)N(Cc1ccccc1)C(=O)COC(=O)C1=NN(c2ccccc2)C(=O)CC1,inactive
21,CCc1ccc(CN(C(=O)c2cc3ccccc3oc2=O)C2CCS(=O)(=O)C2)cc1 (configuration not stated),"inconclusive: 7.94 µM [activator, partial curve]"
22,Cc1cc(NC(=O)c2ccccc2-c2ccccc2)ccc1Br,inactive
23,CCCC1(C(=O)OCC)NC(c2ccc(OC)cc2OC)C2C(=O)N(c3ccc4c(c3)OCCO4)C(=O)C21 (configuration not stated),"inconclusive: 20.6 µM [inhibitor, partial curve]"
24,CC(C)(C)NC(=O)C(c1ccncc1)N(Cc1ccco1)C(=O)c1ccc(-c2ccccc2)[nH]1 (configuration not stated),"inconclusive: 20.6 µM [activator, single point]"

row,Structure (SMILES),Potency
1,COC(=O)c1ccc(C)c(NC(=O)CCSc2ccc(Cl)cc2)c1,"inconclusive: 25.9 µM [inhibitor, single point]"
2,Cc1ccc(NC(=O)c2ccc3c(c2)OCO3)cc1S(=O)(=O)N1CCOCC1,active: 18.3 µM
3,Cc1ccc(C(c2sc3ncnn3c2O)N2CCCCC2)cc1 (configuration not stated),"inconclusive: 18.4 µM [activator, single point]"
4,CCCSc1nc2c(cnn2-c2ccccc2)c(=O)n1N,"inconclusive: 2.06 µM [activator, partial curve]"
5,OCCNCc1ccc(OCc2ccc(Cl)cc2Cl)cc1,"inconclusive: 23.1 µM [activator, single point]"
6,COC(=O)c1cc(NC(=O)c2nn(C)c(=O)c3ccccc23)cc(C(=O)OC)c1,"inconclusive: 2.31 µM [inhibitor, full curve]"
7,N#C/C(=N\Nc1ccccc1[N+](=O)[O-])C(=N)N1CCCCC1,"inconclusive: 5.17 µM [activator, partial curve]"
8,COc1cc(SC)ccc1C(=O)Nc1ccc(Cl)cn1,"inconclusive: 0.326 µM [activator, full curve]"
9,Cc1nc(C(C)NC(=O)c2cc(COc3ccc(C)c(C)c3)on2)c(C)s1 (configuration not stated),"inconclusive: 9.2 µM [activator, partial curve]"
10,O=P(OC1CCCCC1)(OC1CCCCC1)C(O)c1cccnc1 (configuration not stated),inactive
11,Cc1c(C(=O)Nc2cccc([N+](=O)[O-])c2)csc1-c1ccccc1,"inconclusive: 2.31 µM [activator, full curve]"
12,CC(C)(C)c1ccc(C(=O)N2CCC(C(=O)NCC3CCCO3)CC2)cc1 (configuration not stated),"inconclusive: 25.9 µM [activator, partial curve, poor fit]"
13,O=C(COc1ccc(S(=O)(=O)NC2CCCCC2)cc1Cl)NCC1CCCO1 (configuration not stated),"inconclusive: 5.17 µM [inhibitor, partial curve]"
14,O=C(NNC(=S)NC1CCCCC1)c1sc2ccccc2c1Cl,inactive
15,COCCN(CC(=O)Nc1cccc(C)c1C)C(=O)c1ccc2ccccc2n1,"inconclusive: 23.1 µM [activator, single point]"
16,Cc1cc(C)nc(NC(=O)CSc2nc3ccccc3o2)n1,"inconclusive: 18.4 µM [activator, partial curve]"
17,COc1cc(CN(C)Cc2cc(=O)n3ccsc3n2)ccc1OC(F)F,active: 13 µM
18,Cn1c(=O)c2c(nc(CN3CCN(C(c4ccccc4)c4ccccc4)CC3)n2CCCO)n(C)c1=O,"inconclusive: 14.6 µM [inhibitor, single point]"
19,CN(C)C/C=C(\c1ccc(Br)cc1)c1cccnc1,inactive
20,Cc1nc2ccccc2n1C1CC(=O)N(Cc2ccccc2)C1=O (configuration not stated),"inconclusive: 23.1 µM [inhibitor, partial curve]"
21,COc1cc2c(cc1OC)C(NC(=O)C(F)(F)F)CNC2=O (configuration not stated),active: 11.6 µM
22,C=C1CCC2[C@](C)(CO[C@@H]3O[C@H](CO)[C@@H](O)[C@H](O)[C@H]3O)CCC[C@@]2(C)[C@@H]1CCC1=CCOC1=O (some centres not stated),inactive
23,CC(=O)/C(=N/Nc1ccccc1[N+](=O)[O-])N1CCCc2ccccc21,"inconclusive: 25.9 µM [inhibitor, partial curve, poor fit]"
24,CCC(=O)Nc1ccc(C(=O)CSc2nnc(-c3ccc(NS(C)(=O)=O)cc3)n2C)cc1OC,inactive

# Grouped by structure, the entries above with a cyano group.
row,Structure (SMILES),Potency
13,CCc1c(C)sc(NC(=O)C2CCCO2)c1C#N (configuration not stated),"inconclusive: 20.6 µM [activator, single point]"
7,N#C/C(=N\Nc1ccccc1[N+](=O)[O-])C(=N)N1CCCCC1,"inconclusive: 5.17 µM [activator, partial curve]"

# Some of the entries above in a different format.
row | Structure (SMILES) | Potency
4 | CCCSc1nc2c(cnn2-c2ccccc2)c(=O)n1N | inconclusive: 2.06 µM [activator, partial curve]
8 | COc1cc(SC)ccc1C(=O)Nc1ccc(Cl)cn1 | inconclusive: 0.326 µM [activator, full curve]
